Test results taken from US10674699B2, “Endophyte enhanced seedlings with increased pest tolerance” (priority 2006, dated 2020).
Where “and” joins values, the source holds several entries; their conditions need not be identical. Equal entries are not always repeated. At least one structure is not confirmed: it was looked up by name or label, or the drawing left a doubt.

Tested on: Zeiraphera canadensis larvae (spruce budmoth)
Experiment: Dietary rugulosin in artificial diet, wild collected spruce budmoth larvae
Assay type: in vivo
Settings: Wilcoxon matched-pairs signed-ranks test, vs 10 μM and control diets
Experimental: Zeiraphera canadensis larvae (spruce budmoth) were collected from the wild near Sussex in mid June. They were immediately put in test vials and tested at rugulosin concentrations of 10, 50, 100 and 150 μM (75 per concentration). After seven days, surviving larvae were frozen and measured.

In the case of `Cc1cc(O)c2c(c1)C(=O)[C@]13C(=C2O)C(=O)[C@@H]2[C@H](O)[C@H]1[C@@H]1[C@@H](O)[C@H]3C(=O)C3=C(O)c4c(O)cc(C)cc4C(=O)[C@]312` [rugulosin], the “dietary rugulosin concentration at which larvae were lighter” value is reported as 100 or 150 μM and 100 and 150 μM.
